In PMC11272940, “UNC-45 assisted myosin folding depends on a conserved FX3HY motif implicated in Freeman Sheldon Syndrome” (Nature Communications, 2024):

Key:
[1] = molecular target: Kluyveromyces lactis SHE4, wildtype (Kluyveromyces lactis); test: crystal structure; SHE4 co-crystallised with the Myo4 561-581 peptide; 0.1 M bicine/Trizma base pH 8.5, 10% PEG 20000, 20% PEG MME 550; 2.4 Å; both purified
[2] = molecular target: Kluyveromyces lactis SHE4 N475A (Kluyveromyces lactis); test: condition: 10 μM SHE4 in the cell, 107 μM myosin peptide in the syringe; ITC; 25 °C, VP-ITC; 10 μM SHE4 in the cell, 90 μM (N475A: 107 μM) peptide in the syringe; 10 mM HEPES pH 8.0, 150 mM NaCl, 1 mM TCEP; single site model; both purified

For WKFIVSHYAVDVEYEVEGFIEK (peptide, UniProt P32492 561-581) [Myo4 peptide (residues 561–581)], the binding [1] was “binds”.

B1: Myo4 peptide (residues 561–573) (peptide)
peptide: WKFIVSHYAVDVEY
notes: tryptophan introduced at the N-terminus for peptide quantification; also called myosin peptide; core of the myosin motif; source: synthetic peptide (in-house, HPLC purified)
B1 was tested, and the binding [2] was “no binding”.

These are yes or no findings as the source states them, for the method shown. For some assays here: A result given as binding can be weak or reduced; the word gives no strength.
